Source: patent publication US20260384765A1, “ANTHRANILATE SYNTHASE MUTANT AND USE THEREOF” (published 2026)

System: TrpE (S40M/S94N) (anthranilate synthase mutant)
Assay: Determination of tryptophan inhibition curves, TrpE (S40M/S94N)
Details: role: inhibitor; S40M/S94N vs wild type; substrate chorismate 300 μM; pH 9.0
Procedure: Experimental steps: a reaction buffer was prepared to contain 100 mM NH4Cl, 10 mM MgCl2, 20 mM Tris-HCl, and 0.1 mM ethylenediaminetetraacetic acid (EDTA), and the pH was adjusted to 9.0. 50 ml of the buffer was prepared into an 8 g/L tryptophan buffer, and the pH was adjusted to 9.0. The buffers prepared in the previous two steps were mixed in proportion to obtain tryptophan buffers having different concentrations. In a completely black, opaque microplate, 200 μl of tryptophan buffers having different concentrations were added, and the mutant enzyme solution prepared in Example 2 was added to a final concentration of 0.1 μM, followed by incubation at 30 °C for 10 min. […] A fluorescence microplate reader was used to measure the fluorescence value at 400 nm after excitation at 320 nm, with detection performed once every ten seconds. The microplate reader automatically plotted a curve of fluorescence value over time. The concentration of the reaction product anthranilate and the fluorescence value were in a linear relationship when the anthranilate concentration was within 0-50 μM. The initial slope of the curve plotted by the microplate reader when the tryptophan concentration was 0 was defined as enzyme activity=1.0, and the ratio of the slope under different tryptophan concentrations to the slope without feedback inhibition was defined as relative enzyme activity. […]

For `N[C@@H](Cc1c[nH]c2ccccc12)C(=O)O`, the “increase of inhibition constant Ki for tryptophan compared with the wild type” value was “more than 533 fold and 533 fold”.

Not every entry of the source has a single result; some have several. This list holds those alone. There may be further records. Values that stand side by side do not match, cause unknown; dose, time, organism, isomer or construct need not be as stated for each record.
